Here are results for two molecules from paper PMC7988490, “Molecular insights into replication initiation in a multipartite genome harboring bacterium Deinococcus radiodurans” (The Journal of Biological Chemistry, 2020).

These are yes or no findings as the source states them, for the method shown. For some assays here: In cells and extracts the contact can be indirect. Some entries that bind do so weakly or less than the wild type. Tags and fused reporters may be left off the sequences shown.

Test [1] addresses drDnaA (DR_0002) as C-terminal BACTH fusion with the T18 or T25 domain of CyaA (D. radiodurans) (UniProt Q9RYE7). Briefly: two-hybrid; BACTH in E. coli BTH101 co-expressing drDnaA and drDnaB C-terminal T18/T25 fusions, with PprA expressed from pSpecpprA or the vector p11559 as control; β-galactosidase in spot test and liquid assay.
The target of test [2] is T1, PprA-C18 (T18-tagged PprA of D. radiodurans, expressed from pUTpprA) (D. radiodurans) (UniProt O32504).
T1 sequence: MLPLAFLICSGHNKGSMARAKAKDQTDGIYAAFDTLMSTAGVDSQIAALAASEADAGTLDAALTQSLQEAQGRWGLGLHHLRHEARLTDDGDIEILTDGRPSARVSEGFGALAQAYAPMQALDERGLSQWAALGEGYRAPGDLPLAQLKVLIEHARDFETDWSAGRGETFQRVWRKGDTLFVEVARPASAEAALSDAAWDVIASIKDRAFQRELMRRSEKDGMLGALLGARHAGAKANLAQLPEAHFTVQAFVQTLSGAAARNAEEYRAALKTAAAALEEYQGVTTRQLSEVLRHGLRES
As to the kind of experiment: two-hybrid; bacterial two-hybrid (BACTH) in E. coli BTH101 (cyaA-); T18 and T25 fusions co-expressed; β-galactosidase in spot test and liquid culture.

For test [3], the target named is drDnaA (DR_0002) as C-terminal BACTH fusion with the T18 or T25 domain of CyaA (D. radiodurans) (UniProt Q9RYE7). The description is as above.
Test [4] deals with drDnaA expressed on plasmids in D. radiodurans R1, with T18 tag (DA-C18, pV18DA) or with polyhistidine tag (HisDA, pRADhisDA) (D. radiodurans) (UniProt Q9RYE7). As to the kind of experiment: co-IP; cell-free extracts of D. radiodurans R1 co-expressing polyhistidine-tagged and T18-tagged proteins from plasmids; precipitated with antipolyhistidine antibodies, detection with T18 antibodies.

The target of test [5] is T2, native PprA expressed on the chromosome of D. radiodurans R1 (D. radiodurans (endogenous in D. radiodurans R1)) (UniProt O32504).
T2 sequence: T1 sequence
Briefly: co-IP; cell-free extracts of D. radiodurans R1 transformed with pV18DA or pV18DB (5 mM IPTG); native PprA precipitated with anti-PprA antibodies, detection with T18 antibodies.

B1: drDnaA (DR_0002) as C-terminal BACTH fusion with the T18 or T25 domain of CyaA (protein, UniProt Q9RYE7 1-466)
chain: MSQEIWADVLAYVRKNVSDLEYTTWFAPVKPLGVQEGSLLLGVRNSFTKDWFRDHYLELLLAALRSLGAEHPQVEFQVLPAAQDALLLPNDPPPAPEAAAPTPKTKAAPTPPPSTPGDNRKTLNPKYTFENFVVGPNNNLAHAAALAVAESPGKAYNPLFIYGDVGLGKTHLMHAVGHYLAERFPEKRIEYVSTETFTNELINAIRDDKTTQFRNRYRSVDLLLVDDIQFLAGKERTQEEFFHTFNALYESNKQIILSSDRPPKDIQTLEGRLRSRFEWGLITDIQSPEYETRVAILKMNAEQGHITIPQEVLELIARQVTSNIRELEGALMRVVAFASLNNVPFSRAAAAKALSNVFAPQEAKVEMTDVLRQVAAHYGTTPDLIRGSGRARDIVVPRQVAQYLIRALTDHSLPEIGQFFGRDHSTVMHAVSKITEQMGKDPELAATVNTLRNRIQGKEEEEEVGA
Take B1: the binding result in test [1], in test [2] and in test [3] was “binds” in each case.

B2: drDnaA expressed on plasmids in D. radiodurans R1, with T18 tag (DA-C18, pV18DA) or with polyhistidine tag (HisDA, pRADhisDA) (protein, UniProt Q9RYE7 1-466)
chain: B1 chain
On to B2, for which the binding entry in test [4] and in test [5] was “binds” in each case.
